Assay results taken from US20140370521A1, “IDENTIFICATION OF TWO NOVEL BIOMARKERS FOR NIEMANN-PICK DISEASE TYPE C” (The USA , as Represented by the Secretary, Department of …, priority 2011, published 2014).
What was measured is the transcript of the gene that encodes the chain shown.

B1: Lect2 (protein, UniProt O88803 19-151, looked up)
Leukocyte cell-derived …: GPWANICASKSSNEIRTCDSYGCGQYSAQRTQRHHPGVDVLCSDGSVVYAPFTGKIVGQEKPYRNKNAINDGIRLSGRGFCVKIFYIKPIKYKGSIKKGEKLGTLLPLQKIYPGIQSHVHVENCDSSDPTAYL
B2: Loxl2 (protein, UniProt P58022 26-776, looked up)
Lysyl oxidase homolog 2: QYEGWPYQLQYPEYFQQPAPEHHQRQVPSDVVKIQVRLAGQKRKHNEGRVEVYYEGQWGTVCDDDFSIHAAHVVCRQVGYVEAKSWAASSSYGPGEGPIWLDNIYCTGKESTLASCSSNGWGVTDCKHTEDVGVVCSEKRIPGFKFDNSLINQIESLNIQVEDIRIRPILSAFRHRKPVTEGYVEVKEGKAWKQICNKHWTAKNSHVVCGMFGFPAEKTYNPKAYKTFASRRKLRYWKFSMNCTGTEAHISSCKLGPSVTRDPVKNATCENGQPAVVSCVPSQIFSPDGPSRFRKAYKPEQPLVRLRGGAQVGEGRVEVLKNGEWGTICDDKWDLVSASVVCRELGFGTAKEAITGSRLGQGIGPIHLNEVQCTGTEKSIIDCKFNTESQGCNHEEDAGVRCNIPIMGFQKKVRLNGGRNPYEGRVEVLTERNGSLVWGTVCGQNWGIVEAMVVCRQLGLGFASNAFQETWYWHGNIFANNVVMSGVKCSGTELSLAHCRHDEEVACPEGGVRFGAGVACSETAPDLVLNAEIVQQTAYLEDRPMSLLQCAMEENCLSASAVHTDPTRGHRRLLRFSSQIHNNGQSDFRPKNGRHAWIWHDCHRHYHSMEVFTYYDLLSLNGTKVAEGHKASFCLEDTECEGDIQKSYECANFGEQGITMGCWDMYRHDIDCQWIDITDVPPGDYLFQVVINPNYEVPESDFSNNIMKCRSRYDGYRIWMYNCHVGGAFSEETEQKFEHFSGLLNNQLSVQ
B3: Selplg (protein, UniProt Q62170 42-397, looked up)
P-selectin glycoprotein …: QVVGDDDFEDPDYTYNTDPPELLKNVTNTVAAHPELPTTVVMLERDSTSAGTSERATEKIATTDPTAPGTGGTAVGMLSTDSATQWSLTSVETVQPASTEVETSQPAPMEAETSQPAPMEAETSQPAPMEAETSQPAPMEADTSQPAPMEAETSQPAPNEAETSKPAPTEAETSKPAPTEAETTQLPRIQAVKTLFTTSAATEVPSTEPTTMETASTESNESTIFLGPSVTHLPDSGLKKGLIVTPGNSPAPTLPGSSDLIPVKQCLLIILILASLATIFLVCTVVLAVRLSRKTHMYPVRNYSPTEMICISSLLPEGGDGAPVTANGGLPKVQDLKTEPSGDRDGDDLTLHSFLP
B4: Serpina12 (protein, UniProt Q7TMF5 21-413, looked up)
Serpin A12: LQDRDAPDMYDSPVRVQEWRGKKDARQLARHNMEFGFKLLQRLASNSPQGNIFLSPLSISTAFSMLSLGAQNSTLEEIREGFNFKEMSNWDVHAAFHYLLHKLNQETEDTKMNLGNALFMDQKLRPQQRFLNLAKNVYDADMVLTNFQDLENTQKDINRYISQKTHSRIKNMVKSIDPGTVMILTNYIYFRGRWQYEFDPKQTKEEEFFIEKGKTVKVPMMFQRGLYDMAYDSQLSCTILEIPYRGNITATFVLPDNGKLKLLEQGLQADIFAKWKSLLSKRVVDVWVPKLRISSTYNMKKVLSRLGISKIFEENGDLTRISSHRSLKVGEAVHKAELKMDEKGMEGAAGSGAQTLPMETPRHMKLDRPFLMMIYENFMPSMVFLARIYDPSG
B5: Lpl (protein, UniProt P11152 28-474, looked up)
Lipoprotein lipase: ADAGRDFSDIESKFALRTPEDTAEDTCHLIPGLADSVSNCHFNHSSKTFVVIHGWTVTGMYESWVPKLVAALYKREPDSNVIVVDWLYRAQQHYPVSAGYTKLVGNDVARFINWMEEEFNYPLDNVHLLGYSLGAHAAGVAGSLTNKKVNRITGLDPAGPNFEYAEAPSRLSPDDADFVDVLHTFTRGSPGRSIGIQKPVGHVDIYPNGGTFQPGCNIGEAIRVIAERGLGDVDQLVKCSHERSIHLFIDSLLNEENPSKAYRCNSKEAFEKGLCLSCRKNRCNNLGYEINKVRAKRSSKMYLKTRSQMPYKVFHYQVKIHFSGTEDGKQHNQAFEISLYGTVAESENIPFTLPEVSTNKTYSFLIYTEVDIGELLMMKLKWISDSYFSWPDWWSSPSFVIERIRVKAGETQKKVIFCAREKVSHLQKGKDSAVFVKCHDKSLKKSG
B6: Nid1 (protein, UniProt P10493 29-1245, looked up)
Nidogen-1: LNRQELFPFGPGQGDLELEAGDDVVSPSLELIGELSFYDRTDITSVYVTTNGIIAMSEPPATEYHPGTFPPSFGSVAPFLADLDTTDGLGNVYYREDLSPFIIQMAAEYVQRGFPEVSFQPTSVVVVTWESVAPYGGPSSSPAEEGKRNTFQAVLASSNSSSYAIFLYPEDGLQFFTTFSKKDESQVPAVVGFSKGLVGFLWKSNGAYNIFANDRESIENLAKSSNAGHQGVWVFEIGSPATAKGVVSADVNLDLDDDGADYEDEDYDLVTSHLGLEDVATPSPSHSPRRGYPDPHNVPRILSPGYEATERPRGVPTERTRSFQLPAERFPQHHPQVIDVDEVEETGVVFSYNTGSQQTCANNRHQCSVHAECRDYATGFCCRCVANYTGNGRQCVAEGSPQRVNGKVKGRIFVGSSQVPVVFENTDLHSYVVMNHGRSYTAISTIPETVGYSLLPLAPIGGIIGWMFAVEQDGFKNGFSITGGEFTRQAEVTFLGHPGKLVLKQQFSGIDEHGHLTISTELEGRVPQIPYGASVHIEPYTELYHYSSSVITSSSTREYTVMEPDQDGAAPSHTHIYQWRQTITFQECAHDDARPALPSTQQLSVDSVFVLYNKEERILRYALSNSIGPVRDGSPDALQNPCYIGTHGCDSNAACRPGPGTQFTCECSIGFRGDGQTCYDIDECSEQPSRCGNHAVCNNLPGTFRCECVEGYHFSDRGTCVAAEDQRPINYCETGLHNCDIPQRAQCIYMGGSSYTCSCLPGFSGDGRACRDVDECQHSRCHPDAFCYNTPGSFTCQCKPGYQGDGFRCMPGEVSKTRCQLEREHILGAAGGADAQRPTLQGMFVPQCDEYGHYVPTQCHHSTGYCWCVDRDGRELEGSRTPPGMRPPCLSTVAPPIHQGPVVPTAVIPLPPGTHLLFAQTGKIERLPLERNTMKKTEAKAFLHIPAKVIIGLAFDCVDKVVYWTDISEPSIGRASLHGGEPTTIIRQDLGSPEGIALDHLGRTIFWTDSQLDRIEVAKMDGTQRRVLFDTGLVNPRGIVTDPVRGNLYWTDWNRDNPKIETSHMDGTNRRILAQDNLGLPNGLTFDAFSSQLCWVDAGTHRAECLNPAQPGRRKVLEGLQYPFAVTSYGKNLYYTDWKTNSVIAMDLAISKEMDTFHPHKQTRLYGITIALSQCPQGHNYCSVNNGGCTHLCLPTPGSRTCRCPDNTLGVDCIERK
B7: Nrp1 (protein, UniProt P97333 22-923, looked up)
Neuropilin-1: FRSDKCGGTIKIENPGYLTSPGYPHSYHPSEKCEWLIQAPEPYQRIMINFNPHFDLEDRDCKYDYVEVIDGENEGGRLWGKFCGKIAPSPVVSSGPFLFIKFVSDYETHGAGFSIRYEIFKRGPECSQNYTAPTGVIKSPGFPEKYPNSLECTYIIFAPKMSEIILEFESFDLEQDSNPPGGMFCRYDRLEIWDGFPEVGPHIGRYCGQKTPGRIRSSSGVLSMVFYTDSAIAKEGFSANYSVLQSSISEDFKCMEALGMESGEIHSDQITASSQYGTNWSVERSRLNYPENGWTPGEDSYKEWIQVDLGLLRFVTAVGTQGAISKETKKKYYVKTYRVDISSNGEDWISLKEGNKAIIFQGNTNPTDVVLGVFSKPLITRFVRIKPVSWETGISMRFEVYGCKITDYPCSGMLGMVSGLISDSQITASNQADRNWMPENIRLVTSRTGWALPPSPHPYTNEWLQVDLGDEKIVRGVIIQGGKHRENKVFMRKFKIAYSNNGSDWKTIMDDSKRKAKSFEGNNNYDTPELRTFSPLSTRFIRIYPERATHSGLGLRMELLGCEVEAPTAGPTTPNGNPVDECDDDQANCHSGTGDDFQLTGGTTVLATEKPTIIDSTIQSEFPTYGFNCEFGWGSHKTFCHWEHDSHAQLRWSVLTSKTGPIQDHTGDGNFIYSQADENQKGKVARLVSPVVYSQSSAHCMTFWYHMSGSHVGTLRVKLRYQKPEEYDQLVWMVVGHQGDHWKEGRVLLHKSLKLYQVIFEGEIGKGNLGGIAVDDISINNHISQEDCAKPTDLDKKNTEIKIDETGSTPGYEGEGEGDKNISRKPGNVLKTLDPILITIIAMSALGVLLGAVCGVVLYCACWHNGMSERNLSALENYNFELVDGVKLKKDKLNPQSNYSEA
B8: Postn (protein, UniProt Q62009 24-838, looked up)
Periostin: NSYYDKVLAHSRIRGRDQGPNVCALQQILGTKKKYFSSCKNWYQGAICGKKTTVLYECCPGYMRMEGMKGCPAVMPIDHVYGTLGIVGATTTQHYSDVSKLREEIEGKGSYTYFAPSNEAWENLDSDIRRGLENNVNVELLNALHSHMVNKRMLTKDLKHGMVIPSMYNNLGLFINHYPNGVVTVNCARVIHGNQIATNGVVHVIDRVLTQIGTSIQDFLEAEDDLSSFRAAAITSDLLESLGRDGHFTLFAPTNEAFEKLPRGVLERIMGDKVASEALMKYHILNTLQCSEAITGGAVFETMEGNTIEIGCEGDSISINGIKMVNKKDIVTKNGVIHLIDEVLIPDSAKQVIELAGKQQTTFTDLVAQLGLASSLKPDGEYTLLAPVNNAFSDDTLSMDQRLLKLILQNHILKVKVGLSDLYNGQILETIGGKQLRVFVYRTAICIENSCMVRGSKQGRNGAIHIFREIIQPAEKSLHDKLRQDKRFSIFLSLLEAADLKDLLTQPGDWTLFAPTNDAFKGMTSEERELLIGDKNALQNIILYHLTPGVYIGKGFEPGVTNILKTTQGSKIYLKGVNETLLVNELKSKESDIMTTNGVIHVVDKLLYPADIPVGNDQLLELLNKLIKYIQIKFVRGSTFKEIPMTVYTTKIITKVVEPKIKVIQGSLQPIIKTEGPAMTKIQIEGDPDFRLIKEGETVTEVIHGEPVIKKYTKIIDGVPVEITEKQTREERIITGPEIKYTRISTGGGETGETLQKFLQKEVSKVTKFIEGGDGHLFEDEEIKRLLQGDTPAKKIPANKRVQGPRRRSREGRSQ

Test system: Npc1-/- mouse liver
Assay: Liver gene expression microarray, Npc1-/- versus control mice (Affymetrix Mouse GeneChip 1.0 ST)
Settings: 1 week of age, negative = lower in Npc1−/−

| Molecule | FC (fold-change of expression between Npc1−/− and control mice) |
| --- | --- |
| B1 | −1.36 |
| B2 | 1.39 |

Same assay, conditions: 3 weeks of age, negative = lower in Npc1−/−

| Molecule | FC (fold-change of expression between Npc1−/− and control mice) |
| --- | --- |
| B3 | 1.32 |
| B4 | −1.52 |

Same assay, conditions: 5 weeks of age, negative = lower in Npc1−/−

| Molecule | FC (fold-change of expression between Npc1−/− and control mice) |
| --- | --- |
| B2 | 1.30 |
| B5 | 4.66 |
| B6 | 1.63 |
| B7 | −1.73 |
| B8 | 1.44 |

Same assay, conditions: 7 weeks of age, negative = lower in Npc1−/−

| Molecule | FC (fold-change of expression between Npc1−/− and control mice) |
| --- | --- |
| B1 | −1.47 |
| B2 | 1.39 |
| B5 | 9.91 |
| B6 | 2.15 |
| B7 | −2.08 |
| B8 | 1.58 |
| B3 | 1.49 |
| B4 | −1.53 |

Same assay, conditions: 11 weeks of age, negative = lower in Npc1−/−

| Molecule | FC (fold-change of expression between Npc1−/− and control mice) |
| --- | --- |
| B1 | −2.18 |
| B2 | 1.32 |
| B5 | 15.62 |
| B6 | 2.64 |
| B7 | −2.54 |
| B8 | 2.04 |
| B3 | 1.72 |
| B4 | −1.44 |

Same assay, conditions: head prints "weeks" (column between 7 weeks and 11 weeks), negative = lower in Npc1−/−

| Molecule | FC (fold-change of expression between Npc1−/− and control mice) |
| --- | --- |
| B1 | −1.35 |
| B5 | 13.13 |
| B6 | 1.96 |
| B7 | −2.11 |
| B8 | 1.84 |
| B3 | 2.00 |
| B4 | −1.39 |
